These are yes or no findings as the source states them, for the method shown. In cells and extracts the contact can be indirect. Some results given as binding are weak or reduced against the parent protein; the word gives no strength.

Sequences of proteins named here, by UniProt entry; tags and fusion partners are left off. Residues count along the entry.
UniProt P12023, residues 18-770: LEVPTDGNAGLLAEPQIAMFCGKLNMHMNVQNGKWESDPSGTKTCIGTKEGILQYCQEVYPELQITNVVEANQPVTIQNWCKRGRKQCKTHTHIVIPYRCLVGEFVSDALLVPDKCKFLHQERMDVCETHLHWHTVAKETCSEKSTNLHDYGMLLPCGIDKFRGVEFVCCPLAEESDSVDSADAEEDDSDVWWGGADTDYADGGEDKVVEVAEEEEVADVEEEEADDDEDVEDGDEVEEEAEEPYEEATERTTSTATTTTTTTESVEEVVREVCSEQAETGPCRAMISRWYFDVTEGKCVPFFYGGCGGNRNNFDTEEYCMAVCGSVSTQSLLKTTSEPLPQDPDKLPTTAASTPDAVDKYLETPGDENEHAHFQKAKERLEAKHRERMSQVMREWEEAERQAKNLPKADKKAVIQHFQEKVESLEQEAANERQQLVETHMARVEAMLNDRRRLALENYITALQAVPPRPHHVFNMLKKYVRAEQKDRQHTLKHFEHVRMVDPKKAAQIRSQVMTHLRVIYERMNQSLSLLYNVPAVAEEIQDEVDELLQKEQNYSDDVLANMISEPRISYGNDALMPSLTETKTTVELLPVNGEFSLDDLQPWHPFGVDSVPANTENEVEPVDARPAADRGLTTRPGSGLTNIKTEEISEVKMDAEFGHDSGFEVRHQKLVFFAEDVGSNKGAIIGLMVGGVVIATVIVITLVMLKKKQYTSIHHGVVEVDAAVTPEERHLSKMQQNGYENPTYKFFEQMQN

This assay has as its target T1, Lf (lactoferrin) of mouse brain (mouse (endogenous in mouse brain)) (UniProt P08071).
T1 sequence: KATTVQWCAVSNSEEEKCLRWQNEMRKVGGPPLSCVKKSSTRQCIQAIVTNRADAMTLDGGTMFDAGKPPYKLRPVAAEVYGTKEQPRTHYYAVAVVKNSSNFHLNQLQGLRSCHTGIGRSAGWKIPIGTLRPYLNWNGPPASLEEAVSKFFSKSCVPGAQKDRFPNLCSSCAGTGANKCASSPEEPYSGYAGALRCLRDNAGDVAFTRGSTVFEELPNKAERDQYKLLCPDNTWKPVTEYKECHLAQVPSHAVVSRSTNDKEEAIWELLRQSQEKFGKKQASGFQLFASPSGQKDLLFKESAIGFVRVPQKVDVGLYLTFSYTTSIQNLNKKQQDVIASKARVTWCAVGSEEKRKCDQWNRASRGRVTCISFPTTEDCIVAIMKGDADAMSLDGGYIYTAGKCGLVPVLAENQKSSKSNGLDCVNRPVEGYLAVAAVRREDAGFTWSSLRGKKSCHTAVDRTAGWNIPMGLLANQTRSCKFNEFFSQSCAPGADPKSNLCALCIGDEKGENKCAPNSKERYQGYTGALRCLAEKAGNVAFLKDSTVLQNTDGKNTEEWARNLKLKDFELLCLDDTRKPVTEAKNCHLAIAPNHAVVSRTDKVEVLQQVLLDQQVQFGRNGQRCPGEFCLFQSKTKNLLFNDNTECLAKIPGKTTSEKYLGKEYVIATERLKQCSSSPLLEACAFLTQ
As to the kind of experiment: co-IP; brain homogenate supernatant (100 μg, PBS with 1% Triton X-100) of wild-type and APP-/- mice on a normal or high-iron diet (8 days); anti-Lf (1:200) with protein G agarose, blot with anti-APP 22C11.

“APP (amyloid precursor protein) of mouse brain (from UniProt P12023 18-770)”: the binding entry is recorded as “binds”.

Source of the values: PMC8758478.
